In PMC2702331:
These are yes or no findings as the source states them, for the method shown. In cells and extracts the contact can be indirect. These calls come from enrichment with a bait or labelling near it, and not all partners need be listed.

Sequences of proteins named here, by UniProt entry; tags and fusion partners are left off.
UniProt P04608: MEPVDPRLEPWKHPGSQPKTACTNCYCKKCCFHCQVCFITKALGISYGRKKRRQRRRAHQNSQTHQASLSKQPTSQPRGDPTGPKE

Target: GST-Tat (HIV-1 HXB2, 86 amino acids) (HIV-1 HXB2) (UniProt P04608)
Assay: affinity purification with mass spectrometry; only the target purified

Binder | binding
SAP18 (protein, UniProt O00422 1-153) MAVESRVTQEEIKKEPEKPIDREKTCPLLLRVFTTNNGRHHRMDEFSRGNVPSSELQIYTWMDATLKELTSLVKEVYPEARKKGTHFNFAIVFTDVKRPGYRVKEIGSTMSGRKGTDDSMTLQSQKFQIGDYLDIAITPPNRAPPPSGRMRPY | binds
WSTF (protein, UniProt Q9UIG0 1-1483) MAPLLGRKPFPLVKPLPGEEPLFTIPHTQEAFRTREEYEARLERYSERIWTCKSTGSSQLTHKEAWEEEQEVAELLKEEFPAWYEKLVLEMVHHNTASLEKLVDTAWLEIMTKYAVGEECDFEVGKEKMLKVKIVKIHPLEKVDEEATEKKSDGACDSPSSDKENSSQIAQDHQKKETVVKEDEGRRESINDRARRSPRKLPTSLKKGERKWAPPKFLPHKYDVKLQNEDKIISNVPADSLIRTERPPNKEIVRYFIRHNALRAGTGENAPWVVEDELVKKYSLPSKFSDFLLDPYKYMTLNPSTKRKNTGSPDRKPSKKSKTDNSSLSSPLNPKLWCHVHLKKSLSGSPLKVKNSKNSKSPEEHLEEMMKMMSPNKLHTNFHIPKKGPPAKKPGKHSDKPLKAKGRSKGILNGQKSTGNSKSPKKGLKTPKTKMKQMTLLDMAKGTQKMTRAPRNSGGTPRTSSKPHKHLPPAALHLIAYYKENKDREDKRSALSCVISKTARLLSSEDRARLPEELRSLVQKRYELLEHKKRWASMSEEQRKEYLKKKREELKKKLKEKAKERREKEMLERLEKQKRYEDQELTGKNLPAFRLVDTPEGLPNTLFGDVAMVVEFLSCYSGLLLPDAQYPITAVSLMEALSADKGGFLYLNRVLVILLQTLLQDEIAEDYGELGMKLSEIPLTLHSVSELVRLCLRRSDVQEESEGSDTDDNKDSAAFEDNEVQDEFLEKLETSEFFELTSEEKLQILTALCHRILMTYSVQDHMETRQQMSAELWKERLAVLKEENDKKRAEKQKRKEMEAKNKENGKVENGLGKTDRKKEIVKFEPQVDTEAEDMISAVKSRRLLAIQAKKEREIQEREMKVKLERQAEEERIRKHKAAAEKAFQEGIAKAKLVMRRTPIGTDRNHNRYWLFSDEVPGLFIEKGWVHDSIDYRFNHHCKDHTVSGDEDYCPRSKKANLGKNASMNTQHGTATEVAVETTTPKQGQNLWFLCDSQKELDELLNCLHPQGIRESQLKERLEKRYQDIIHSIHLARKPNLGLKSCDGNQELLNFLRSDLIEVATRLQKGGLGYVEETSEFEARVISLEKLKDFGECVIALQASVIKKFLQGFMAPKQKRRKLQSEDSAKTEEVDEEKKMVEEAKVASALEKWKTAIREAQTFSRMHVLLGMLDACIKWDMSAENARCKVCRKKGEDDKLILCDECNKAFHLFCLRPALYEVPDGEWQCPACQPATARRNSRGRNYTEESASEDSEDDESDEEEEEEEEEEEEEDYEVAGLRLRPRKTIRGKHSVIPPAARSGRRPGKKPHSTRRSQPKAPPVDDAEVDELVLQTKRSSRRQSLELQKCEEILHKIVKYRFSWPFREPVTRDEAEDYYDVITHPMDFQTVQNKCSCGSYRSVQEFLTDMKQVFTNAEVYNCRGSHVLSCMVKTEQCLVALLHKHLPGHPYVRRKRKKFPDRLAEDEGDSEPEAVGQSRGRRQKK | binds
RFC1 (protein, UniProt P35251 1-1148) MDIRKFFGVIPSGKKLVSETVKKNEKTKSDEETLKAKKGIKEIKVNSSRKEDDFKQKQPSKKKRIIYDSDSESEETLQVKNAKKPPEKLPVSSKPGKISRQDPVTYISETDEEDDFMCKKAASKSKENGRSTNSHLGTSNMKKNEENTKTKNKPLSPIKLTPTSVLDYFGTGSVQRSNKKMVASKRKELSQNTDESGLNDEAIAKQLQLDEDAELERQLHEDEEFARTLAMLDEEPKTKKARKDTEAGETFSSVQANLSKAEKHKYPHKVKTAQVSDERKSYSPRKQSKYESSKESQQHSKSSADKIGEVSSPKASSKLAIMKRKEESSYKEIEPVASKRKENAIKLKGETKTPKKTKSSPAKKESVSPEDSEKKRTNYQAYRSYLNREGPKALGSKEIPKGAENCLEGLIFVITGVLESIERDEAKSLIERYGGKVTGNVSKKTNYLVMGRDSGQSKSDKAAALGTKIIDEDGLLNLIRTMPGKKSKYEIAVETEMKKESKLERTPQKNVQGKRKISPSKKESESKKSRPTSKRDSLAKTIKKETDVFWKSLDFKEQVAEETSGDSKARNLADDSSENKVENLLWVDKYKPTSLKTIIGQQGDQSCANKLLRWLRNWQKSSSEDKKHAAKFGKFSGKDDGSSFKAALLSGPPGVGKTTTASLVCQELGYSYVELNASDTRSKSSLKAIVAESLNNTSIKGFYSNGAASSVSTKHALIMDEVDGMAGNEDRGGIQELIGLIKHTKIPIICMCNDRNHPKIRSLVHYCFDLRFQRPRVEQIKGAMMSIAFKEGLKIPPPAMNEIILGANQDIRQVLHNLSMWCARSKALTYDQAKADSHRAKKDIKMGPFDVARKVFAAGEETAHMSLVDKSDLFFHDYSIAPLFVQENYIHVKPVAAGGDMKKHLMLLSRAADSICDGDLVDSQIRSKQNWSLLPAQAIYASVLPGELMRGYMTQFPTFPSWLGKHSSTGKHDRIVQDLALHMSLRTYSSKRTVNMDYLSLLRDALVQPLTSQGVDGVQDVVALMDTYYLMKEDFENIMEISSWGGKPSPFSKLDPKVKAAFTRAYNKEAHLTPYSLQAIKASRHSTSPSLDSEYNEELNEDDSQSDEKDQDAIETDAMIKKKTKSSKPSKPEKDKEPRKGKGKSSKK | binds
ERCC2 (protein, UniProt P18074 1-760) MKLNVDGLLVYFPYDYIYPEQFSYMRELKRTLDAKGHGVLEMPSGTGKTVSLLALIMAYQRAYPLEVTKLIYCSRTVPEIEKVIEELRKLLNFYEKQEGEKLPFLGLALSSRKNLCIHPEVTPLRFGKDVDGKCHSLTASYVRAQYQHDTSLPHCRFYEEFDAHGREVPLPAGIYNLDDLKALGRRQGWCPYFLARYSILHANVVVYSYHYLLDPKIADLVSKELARKAVVVFDEAHNIDNVCIDSMSVNLTRRTLDRCQGNLETLQKTVLRIKETDEQRLRDEYRRLVEGLREASAARETDAHLANPVLPDEVLQEAVPGSIRTAEHFLGFLRRLLEYVKWRLRVQHVVQESPPAFLSGLAQRVCIQRKPLRFCAERLRSLLHTLEITDLADFSPLTLLANFATLVSTYAKGFTIIIEPFDDRTPTIANPILHFSCMDASLAIKPVFERFQSVIITSGTLSPLDIYPKILDFHPVTMATFTMTLARVCLCPMIIGRGNDQVAISSKFETREDIAVIRNYGNLLLEMSAVVPDGIVAFFTSYQYMESTVASWYEQGILENIQRNKLLFIETQDGAETSVALEKYQEACENGRGAILLSVARGKVSEGIDFVHHYGRAVIMFGVPYVYTQSRILKARLEYLRDQFQIRENDFLTFDAMRHAAQCVGRAIRGKTDYGLMVFADKRFARGDKRGKLPRWIQEHLTDANLNLTVDEGVQVAKYFLRQMAQPFHREDQLGLSLLSLEQLESEETLKRIEQIAQQL | binds
MCM6 (protein, UniProt Q14566 1-821) MDLAAAAEPGAGSQHLEVRDEVAEKCQKLFLDFLEEFQSSDGEIKYLQLAEELIRPERNTLVVSFVDLEQFNQQLSTTIQEEFYRVYPYLCRALKTFVKDRKEIPLAKDFYVAFQDLPTRHKIRELTSSRIGLLTRISGQVVRTHPVHPELVSGTFLCLDCQTVIRDVEQQFKYTQPNICRNPVCANRRRFLLDTNKSRFVDFQKVRIQETQAELPRGSIPRSLEVILRAEAVESAQAGDKCDFTGTLIVVPDVSKLSTPGARAETNSRVSGVDGYETEGIRGLRALGVRDLSYRLVFLACCVAPTNPRFGGKELRDEEQTAESIKNQMTVKEWEKVFEMSQDKNLYHNLCTSLFPTIHGNDEVKRGVLLMLFGGVPKTTGEGTSLRGDINVCIVGDPSTAKSQFLKHVEEFSPRAVYTSGKASSAAGLTAAVVRDEESHEFVIEAGALMLADNGVCCIDEFDKMDVRDQVAIHEAMEQQTISITKAGVKATLNARTSILAAANPISGHYDRSKSLKQNINLSAPIMSRFDLFFILVDECNEVTDYAIARRIVDLHSRIEESIDRVYSLDDIRRYLLFARQFKPKISKESEDFIVEQYKHLRQRDGSGVTKSSWRITVRQLESMIRLSEAMARMHCCDEVQPKHVKEAFRLLNKSIIRVETPDVNLDQEEEIQMEVDEGAGGINGHADSPAPVNGINGYNEDINQESAPKASLRLGFSEYCRISNLIVLHLRKVEEEEDESALKRSELVNWYLKEIESEIDSEEELINKKRIIEKVIHRLTHYDHVLIELTQAGLKGSTEGSESYEEDPYLVVNPNYLLED | binds
ILF3 (protein, UniProt Q12906 1-894) MRPMRIFVNDDRHVMAKHSSVYPTQEELEAVQNMVSHTERALKAVSDWIDEQEKGSSEQAESDNMDVPPEDDSKEGAGEQKTEHMTRTLRGVMRVGLVAKGLLLKGDLDLELVLLCKEKPTTALLDKVADNLAIQLAAVTEDKYEILQSVDDAAIVIKNTKEPPLSLTIHLTSPVVREEMEKVLAGETLSVNDPPDVLDRQKCLAALASLRHAKWFQARANGLKSCVIVIRVLRDLCTRVPTWGPLRGWPLELLCEKSIGTANRPMGAGEALRRVLECLASGIVMPDGSGIYDPCEKEATDAIGHLDRQQREDITQSAQHALRLAAFGQLHKVLGMDPLPSKMPKKPKNENPVDYTVQIPPSTTYAITPMKRPMEEDGEEKSPSKKKKKIQKKEEKAEPPQAMNALMRLNQLKPGLQYKLVSQTGPVHAPIFTMSVEVDGNSFEASGPSKKTAKLHVAVKVLQDMGLPTGAEGRDSSKGEDSAEETEAKPAVVAPAPVVEAVSTPSAAFPSDATAEQGPILTKHGKNPVMELNEKRRGLKYELISETGGSHDKRFVMEVEVDGQKFQGAGSNKKVAKAYAALAALEKLFPDTPLALDANKKKRAPVPVRGGPKFAAKPHNPGFGMGGPMHNEVPPPPNLRGRGRGGSIRGRGRGRGFGGANHGGYMNAGAGYGSYGYGGNSATAGYSQFYSNGGHSGNASGGGGGGGGGSSGYGSYYQGDNYNSPVPPKHAGKKQPHGGQQKPSYGSGYQSHQGQQQSYNQSPYSNYGPPQGKQKGYNHGQGSYSYSNSYNSPGGGGGSDYNYESKFNYSGSGGRSGGNSYGSGGASYNPGSHGGYGGGSGGGSSYQGKQGGYSQSNYNSPGSGQNYSGPPSSYQSSQGGYGRNADHSMNYQYR | binds
MCM3 (protein, UniProt P25205 1-808) MAGTVVLDDVELREAQRDYLDFLDDEEDQGIYQSKVRELISDNQYRLIVNVNDLRRKNEKRANRLLNNAFEELVAFQRALKDFVASIDATYAKQYEEFYVGLEGSFGSKHVSPRTLTSCFLSCVVCVEGIVTKCSLVRPKVVRSVHYCPATKKTIERRYSDLTTLVAFPSSSVYPTKDEENNPLETEYGLSVYKDHQTITIQEMPEKAPAGQLPRSVDVILDDDLVDKAKPGDRVQVVGTYRCLPGKKGGYTSGTFRTVLIACNVKQMSKDAQPSFSAEDIAKIKKFSKTRSKDIFDQLAKSLAPSIHGHDYVKKAILCLLLGGVERDLENGSHIRGDINILLIGDPSVAKSQLLRYVLCTAPRAIPTTGRGSSGVGLTAAVTTDQETGERRLEAGAMVLADRGVVCIDEFDKMSDMDRTAIHEVMEQGRVTIAKAGIHARLNARCSVLAAANPVYGRYDQYKTPMENIGLQDSLLSRFDLLFIMLDQMDPEQDREISDHVLRMHRYRAPGEQDGDAMPLGSAVDILATDDPNFSQEDQQDTQIYEKHDNLLHGTKKKKEKMVSAAFMKKYIHVAKIIKPVLTQESATYIAEEYSRLRSQDSMSSDTARTSPVTARTLETLIRLATAHAKARMSKTVDLQDAEEAVELVQYAYFKKVLEKEKKRKKRSEDESETEDEEEKSQEDQEQKRKRRKTRQPDAKDGDSYDPYDFSDTEEEMPQVHTPKTADSQETKESQKVELSESRLKAFKVALLDVFREAHAQSIGMNRLTESINRDSEEPFSSVEIQAALSKMQDDNQVMVSEGIIFLI | binds
